Laboratory results reported in PMC11705415.
No constants are given. Whether binding was seen depends on the method and setting. Binding seen in cells or lysates may run through a third protein. Some binding calls cover weakened binding; strength is not graded here. For some of these results: Tags and fused reporters may be left off the sequences shown.

Chains of the proteins cited; added tags and fusions are not shown. Lines headed by an entry give the natural chain unless they say otherwise; changes in a name come on top. A line that says so, or that is headed by a name, gives the form on record, which may keep a tag or linker.
UniProt P28740: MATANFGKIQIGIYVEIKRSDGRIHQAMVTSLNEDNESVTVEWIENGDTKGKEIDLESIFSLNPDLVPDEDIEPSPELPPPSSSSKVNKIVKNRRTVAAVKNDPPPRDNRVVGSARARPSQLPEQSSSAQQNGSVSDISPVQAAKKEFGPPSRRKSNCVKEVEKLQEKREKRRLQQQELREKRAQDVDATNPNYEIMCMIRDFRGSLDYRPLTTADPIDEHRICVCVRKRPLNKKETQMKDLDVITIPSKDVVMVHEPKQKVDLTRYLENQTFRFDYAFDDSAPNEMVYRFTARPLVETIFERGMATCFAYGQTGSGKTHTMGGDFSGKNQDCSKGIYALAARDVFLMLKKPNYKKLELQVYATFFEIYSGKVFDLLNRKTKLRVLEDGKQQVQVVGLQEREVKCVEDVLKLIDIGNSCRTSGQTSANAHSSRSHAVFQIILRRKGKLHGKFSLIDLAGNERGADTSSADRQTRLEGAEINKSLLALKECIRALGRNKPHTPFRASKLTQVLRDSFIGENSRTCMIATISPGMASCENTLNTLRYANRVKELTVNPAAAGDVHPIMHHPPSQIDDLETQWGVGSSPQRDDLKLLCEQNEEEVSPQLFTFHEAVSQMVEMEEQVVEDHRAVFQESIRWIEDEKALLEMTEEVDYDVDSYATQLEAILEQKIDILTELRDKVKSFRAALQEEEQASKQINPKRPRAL
UniProt P33215: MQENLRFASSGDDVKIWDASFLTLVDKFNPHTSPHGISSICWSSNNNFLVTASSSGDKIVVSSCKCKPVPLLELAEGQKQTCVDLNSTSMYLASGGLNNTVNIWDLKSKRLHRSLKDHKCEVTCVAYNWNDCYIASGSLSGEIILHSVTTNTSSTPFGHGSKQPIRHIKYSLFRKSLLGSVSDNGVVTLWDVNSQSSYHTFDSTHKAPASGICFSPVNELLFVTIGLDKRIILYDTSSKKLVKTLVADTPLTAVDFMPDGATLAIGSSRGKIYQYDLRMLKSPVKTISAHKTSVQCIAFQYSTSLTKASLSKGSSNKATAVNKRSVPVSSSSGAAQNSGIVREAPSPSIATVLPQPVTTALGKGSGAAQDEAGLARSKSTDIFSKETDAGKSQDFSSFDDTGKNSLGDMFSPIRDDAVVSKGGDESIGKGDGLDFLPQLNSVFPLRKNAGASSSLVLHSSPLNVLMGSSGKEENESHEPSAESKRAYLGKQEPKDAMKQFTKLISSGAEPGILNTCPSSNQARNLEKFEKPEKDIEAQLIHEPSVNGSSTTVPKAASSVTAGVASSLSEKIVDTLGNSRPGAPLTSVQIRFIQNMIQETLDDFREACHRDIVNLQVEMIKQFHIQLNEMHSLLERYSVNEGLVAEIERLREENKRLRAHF
UniProt P62069: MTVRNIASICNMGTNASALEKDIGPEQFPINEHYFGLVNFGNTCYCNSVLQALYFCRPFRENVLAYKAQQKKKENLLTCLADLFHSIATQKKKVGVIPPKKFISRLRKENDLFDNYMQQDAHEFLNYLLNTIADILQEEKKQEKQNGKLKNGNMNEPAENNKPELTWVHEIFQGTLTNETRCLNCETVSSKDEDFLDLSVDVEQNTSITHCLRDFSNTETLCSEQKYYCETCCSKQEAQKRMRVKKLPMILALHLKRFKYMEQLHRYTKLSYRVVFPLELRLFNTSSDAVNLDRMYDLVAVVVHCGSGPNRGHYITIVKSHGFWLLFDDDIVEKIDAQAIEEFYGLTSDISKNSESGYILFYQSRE
HA-USP46-ΔK92 (P62069, form named): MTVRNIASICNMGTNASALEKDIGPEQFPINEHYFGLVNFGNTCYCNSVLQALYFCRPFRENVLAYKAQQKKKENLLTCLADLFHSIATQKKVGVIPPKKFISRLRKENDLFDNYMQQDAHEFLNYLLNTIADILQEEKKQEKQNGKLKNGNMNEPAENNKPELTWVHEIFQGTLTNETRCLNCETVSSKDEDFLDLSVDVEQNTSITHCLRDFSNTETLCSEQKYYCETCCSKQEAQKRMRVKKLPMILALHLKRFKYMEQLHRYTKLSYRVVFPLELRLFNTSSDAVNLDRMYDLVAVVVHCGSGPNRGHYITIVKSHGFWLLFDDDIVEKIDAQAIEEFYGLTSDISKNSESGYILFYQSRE

How the values were obtained:
Assay in all cases: co-IP; Neuro2a cells co-transfected with HA-USP46 and VC-tagged protein; lysis in TNE buffer with 0.1% Triton X-100; precipitation of the VC-tagged protein with anti-GFP antibody and Protein G magnetic beads at 4 °C; HA-USP46 detected by western blotting
VC-tagged AHI1 = biological target: T1, VC-tagged AHI1 (UniProt Q8K3E5)
T1 sequence: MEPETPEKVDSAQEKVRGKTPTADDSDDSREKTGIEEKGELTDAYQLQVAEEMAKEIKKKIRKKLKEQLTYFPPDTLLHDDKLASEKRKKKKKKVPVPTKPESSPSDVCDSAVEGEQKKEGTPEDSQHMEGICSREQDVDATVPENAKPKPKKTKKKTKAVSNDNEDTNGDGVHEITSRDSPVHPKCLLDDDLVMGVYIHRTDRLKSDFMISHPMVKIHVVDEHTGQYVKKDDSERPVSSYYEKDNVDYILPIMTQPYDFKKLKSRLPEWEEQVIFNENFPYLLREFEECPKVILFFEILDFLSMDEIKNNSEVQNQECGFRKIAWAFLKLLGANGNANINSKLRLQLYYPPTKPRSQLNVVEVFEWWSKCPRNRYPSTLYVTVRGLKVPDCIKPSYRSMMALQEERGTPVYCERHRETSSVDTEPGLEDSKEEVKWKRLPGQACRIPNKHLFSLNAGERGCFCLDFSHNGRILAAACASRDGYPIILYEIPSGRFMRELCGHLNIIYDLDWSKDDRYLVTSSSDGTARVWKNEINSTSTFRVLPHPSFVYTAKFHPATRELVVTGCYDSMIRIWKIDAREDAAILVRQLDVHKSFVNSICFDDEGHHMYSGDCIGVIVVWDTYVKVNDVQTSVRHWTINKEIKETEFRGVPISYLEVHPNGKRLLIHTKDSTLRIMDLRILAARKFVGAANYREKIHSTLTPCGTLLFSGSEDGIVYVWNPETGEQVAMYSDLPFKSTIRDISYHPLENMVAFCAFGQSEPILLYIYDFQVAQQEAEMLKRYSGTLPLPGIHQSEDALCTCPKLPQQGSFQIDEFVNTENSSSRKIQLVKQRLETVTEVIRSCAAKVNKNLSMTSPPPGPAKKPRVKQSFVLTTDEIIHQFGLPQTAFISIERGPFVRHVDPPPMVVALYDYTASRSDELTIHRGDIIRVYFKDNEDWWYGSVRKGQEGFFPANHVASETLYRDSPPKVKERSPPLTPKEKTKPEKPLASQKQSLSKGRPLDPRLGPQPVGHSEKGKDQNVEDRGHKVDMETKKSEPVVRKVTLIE

VC-tagged KIF2A = VC-tagged KIF2A (UniProt P28740)
VC-tagged CCP110 = biological target: T2, VC-tagged CCP110 (UniProt Q7TSH4)
T2 sequence: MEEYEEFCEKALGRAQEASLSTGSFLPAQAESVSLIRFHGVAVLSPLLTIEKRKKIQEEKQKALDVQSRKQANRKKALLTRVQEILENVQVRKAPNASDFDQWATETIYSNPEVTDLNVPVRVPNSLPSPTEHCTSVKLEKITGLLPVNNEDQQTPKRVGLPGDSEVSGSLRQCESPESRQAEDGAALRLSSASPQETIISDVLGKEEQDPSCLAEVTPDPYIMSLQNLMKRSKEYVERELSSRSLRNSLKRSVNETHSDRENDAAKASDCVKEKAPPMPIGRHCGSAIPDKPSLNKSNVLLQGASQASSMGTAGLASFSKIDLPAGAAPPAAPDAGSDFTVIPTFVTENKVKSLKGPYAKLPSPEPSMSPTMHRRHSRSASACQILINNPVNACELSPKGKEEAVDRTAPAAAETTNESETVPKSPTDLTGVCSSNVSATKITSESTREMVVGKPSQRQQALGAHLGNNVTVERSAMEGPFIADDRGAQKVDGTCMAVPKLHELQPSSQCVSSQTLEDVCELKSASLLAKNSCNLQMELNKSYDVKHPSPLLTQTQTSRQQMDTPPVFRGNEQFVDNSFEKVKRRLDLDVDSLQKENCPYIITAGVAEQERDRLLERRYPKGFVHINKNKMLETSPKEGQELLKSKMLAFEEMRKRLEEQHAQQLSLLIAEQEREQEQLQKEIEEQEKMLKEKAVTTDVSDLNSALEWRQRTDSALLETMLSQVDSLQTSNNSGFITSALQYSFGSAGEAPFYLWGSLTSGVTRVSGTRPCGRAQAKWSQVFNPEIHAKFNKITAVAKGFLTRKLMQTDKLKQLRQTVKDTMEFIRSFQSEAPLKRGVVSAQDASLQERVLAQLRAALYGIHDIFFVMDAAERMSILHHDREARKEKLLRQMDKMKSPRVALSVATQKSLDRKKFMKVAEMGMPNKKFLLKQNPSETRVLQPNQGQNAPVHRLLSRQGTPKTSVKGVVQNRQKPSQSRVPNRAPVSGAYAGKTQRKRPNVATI

VC-tagged NEDD1 = VC-tagged NEDD1 (UniProt P33215)
VC-tagged SIRT2 = biological target: T3, VC-tagged SIRT2 (UniProt Q8VDQ8)
T3 sequence: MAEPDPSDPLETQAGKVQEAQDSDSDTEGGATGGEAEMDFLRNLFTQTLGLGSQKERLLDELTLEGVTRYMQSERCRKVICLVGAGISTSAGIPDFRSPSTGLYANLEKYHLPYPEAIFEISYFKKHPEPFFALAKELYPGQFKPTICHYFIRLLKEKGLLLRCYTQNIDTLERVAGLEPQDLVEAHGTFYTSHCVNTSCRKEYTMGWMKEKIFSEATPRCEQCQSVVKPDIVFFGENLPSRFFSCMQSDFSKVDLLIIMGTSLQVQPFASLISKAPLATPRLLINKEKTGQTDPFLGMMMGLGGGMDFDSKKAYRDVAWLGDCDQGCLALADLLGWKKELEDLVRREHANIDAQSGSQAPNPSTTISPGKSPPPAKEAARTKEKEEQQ

Measured: binding

HA-USP46-ΔK92 (from UniProt P62069 1-366) (enzyme)
binds: all assays above

HA-USP46-WT (from UniProt P62069 1-366) (enzyme)
binds: all assays above
